Experimental data: article PMC2854129, “Spadin, a Sortilin-Derived Peptide, Targeting Rodent TREK-1 Channels: A New Concept in the Antidepressant Drug Design” (PLoS Biology, 2010)
No constants are given. Whether binding was seen depends on the method and setting. For some of these results: In cells and extracts the contact can be indirect. Some binding calls cover weakened binding; strength is not graded here.

By UniProt entry, the sequences of proteins in these tests, tags left out. Where a name states a change or a piece, a line headed by the entry shows the natural chain unless it says otherwise. Residues count along the entry.
UniProt P97438: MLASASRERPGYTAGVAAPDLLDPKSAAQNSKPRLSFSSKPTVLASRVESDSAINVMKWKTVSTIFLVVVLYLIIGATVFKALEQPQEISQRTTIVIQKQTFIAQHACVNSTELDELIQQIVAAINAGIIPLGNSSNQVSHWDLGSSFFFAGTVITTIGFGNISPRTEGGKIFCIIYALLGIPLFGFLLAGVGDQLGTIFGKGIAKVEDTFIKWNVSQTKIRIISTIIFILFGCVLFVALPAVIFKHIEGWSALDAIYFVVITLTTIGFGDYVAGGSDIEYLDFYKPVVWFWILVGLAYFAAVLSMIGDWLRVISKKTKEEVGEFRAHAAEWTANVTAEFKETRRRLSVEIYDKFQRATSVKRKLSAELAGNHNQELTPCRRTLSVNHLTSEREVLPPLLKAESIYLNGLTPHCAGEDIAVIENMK
UniProt Q99523, residues 78-831: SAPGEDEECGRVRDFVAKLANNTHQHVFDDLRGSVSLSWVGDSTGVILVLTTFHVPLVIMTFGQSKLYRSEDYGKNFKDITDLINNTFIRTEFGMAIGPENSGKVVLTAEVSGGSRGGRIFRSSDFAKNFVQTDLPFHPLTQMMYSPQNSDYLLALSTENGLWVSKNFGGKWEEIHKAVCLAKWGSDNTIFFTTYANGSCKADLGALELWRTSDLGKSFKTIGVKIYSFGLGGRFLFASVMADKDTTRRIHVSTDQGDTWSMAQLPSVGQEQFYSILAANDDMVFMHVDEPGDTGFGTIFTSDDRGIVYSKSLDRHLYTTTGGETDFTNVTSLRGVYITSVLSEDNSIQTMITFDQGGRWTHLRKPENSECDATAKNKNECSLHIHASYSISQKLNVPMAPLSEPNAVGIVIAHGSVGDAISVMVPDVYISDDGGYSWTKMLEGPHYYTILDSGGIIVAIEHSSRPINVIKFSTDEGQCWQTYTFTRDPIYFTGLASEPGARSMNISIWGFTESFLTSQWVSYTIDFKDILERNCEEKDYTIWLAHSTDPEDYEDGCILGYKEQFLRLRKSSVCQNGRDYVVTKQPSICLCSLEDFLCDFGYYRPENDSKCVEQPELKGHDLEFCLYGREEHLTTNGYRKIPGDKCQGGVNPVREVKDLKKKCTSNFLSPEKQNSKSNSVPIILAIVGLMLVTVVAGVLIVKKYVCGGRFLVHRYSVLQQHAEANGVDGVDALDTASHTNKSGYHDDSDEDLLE
UniProt Q6PHU5, residues 74-825: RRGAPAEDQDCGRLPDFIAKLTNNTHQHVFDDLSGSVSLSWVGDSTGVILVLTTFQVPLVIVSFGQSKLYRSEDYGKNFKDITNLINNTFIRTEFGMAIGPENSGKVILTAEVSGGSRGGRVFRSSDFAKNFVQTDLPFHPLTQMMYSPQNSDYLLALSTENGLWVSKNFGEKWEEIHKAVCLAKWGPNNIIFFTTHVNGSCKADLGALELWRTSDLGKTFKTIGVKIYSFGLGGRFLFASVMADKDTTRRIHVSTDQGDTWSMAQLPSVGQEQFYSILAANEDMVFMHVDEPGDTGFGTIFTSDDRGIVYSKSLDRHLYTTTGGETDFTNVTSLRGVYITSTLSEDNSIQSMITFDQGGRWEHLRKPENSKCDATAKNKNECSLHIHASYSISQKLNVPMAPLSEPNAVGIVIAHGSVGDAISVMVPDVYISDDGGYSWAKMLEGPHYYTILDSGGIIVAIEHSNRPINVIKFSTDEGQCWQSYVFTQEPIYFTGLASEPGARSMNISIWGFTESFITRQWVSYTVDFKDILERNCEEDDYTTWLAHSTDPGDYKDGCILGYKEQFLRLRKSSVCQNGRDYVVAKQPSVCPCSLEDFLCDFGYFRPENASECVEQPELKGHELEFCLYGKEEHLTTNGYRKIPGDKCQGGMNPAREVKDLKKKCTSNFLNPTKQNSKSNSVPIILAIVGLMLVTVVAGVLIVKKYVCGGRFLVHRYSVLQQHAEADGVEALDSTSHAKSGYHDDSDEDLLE
UniProt P30990: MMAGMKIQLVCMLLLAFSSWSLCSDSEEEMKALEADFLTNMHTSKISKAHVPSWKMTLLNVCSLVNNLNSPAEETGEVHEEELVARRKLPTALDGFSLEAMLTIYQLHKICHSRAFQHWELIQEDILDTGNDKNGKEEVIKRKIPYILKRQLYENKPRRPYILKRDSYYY

How the values were obtained:
[1] = target: TREK-1 channel (KCNK2), transfected in COS-7 cells (mouse) (UniProt P97438); assay: condition: 10^-5 M (highest concentration of competitor, from the methods); radioligand binding; competition: homogenates of TREK-1 transfected COS-7 cells with 0.2 nM 125I-spadin and increasing unlabelled spadin, NT or Gln1-Arg16 (10^-10 to 10^-5 M); 50 mM Tris-HCl pH 7.4, 0.1% BSA; filtration; only the binder purified
[2] = target: NTSR3/Sortilin (neurotensin receptor 3), transfected in COS-7 cells (UniProt Q99523); assay: co-IP; lysates (1% Triton X100, 50 mM NaCl, pH 7.5) of COS-7 cells co-transfected with TREK-1 and NTSR3/Sortilin; IP with rabbit polyclonal anti-TREK-1 or anti-NTSR3, protein-A beads overnight at 4°C; Western blot
[3] = target: TREK-1 channel (KCNK2), transfected in COS-7 cells (mouse) (UniProt P97438); assay: as above
[4] = target: NTSR3/Sortilin, endogenous in mouse cortical neurons (mouse (endogenous in cortical neurons)) (UniProt Q6PHU5); assay: co-IP; lysates (1% Triton X100, 50 mM NaCl, pH 7.5) of mouse cortical neurons, endogenous proteins; IP with rabbit polyclonal anti-TREK-1 or anti-NTSR3, protein-A beads overnight at 4°C; Western blot
[5] = target: TREK-1 channel, endogenous in mouse neurons (mouse (endogenous in cortical neurons)) (UniProt P97438); assay: as above
[6] = target: TREK-1 channel (KCNK2), transfected in COS-7 cells (mouse) (UniProt P97438); assay: radioligand binding; competition: homogenates of TREK-1 transfected COS-7 cells with 0.2 nM 125I-spadin and increasing unlabelled spadin, NT or Gln1-Arg16 (10^-10 to 10^-5 M); 50 mM Tris-HCl pH 7.4, 0.1% BSA; filtration; only the binder purified
[7] = target: TREK-1 channel (KCNK2), transfected in COS-7 cells (mouse) (UniProt P97438); assay: radioligand binding; association kinetics of 0.2 nM 125I-spadin on whole COS-7 cells expressing TREK-1 at 37°C, Earle's Tris-Hepes buffer; wash with buffer or acid-NaCl; non-specific binding with 10 µM unlabelled spadin; only the binder purified

Molecule: neurotensin (NT), unlabelled (from UniProt P30990 151-163) (peptide)
- binding [1]: no binding

Molecule: TREK-1 channel (KCNK2), transfected in COS-7 cells (from UniProt P97438 1-426)
- binding [2]: binds

Molecule: NTSR3/Sortilin (neurotensin receptor 3), transfected in COS-7 cells (from UniProt Q99523 78-831)
- binding [3]: binds

Molecule: TREK-1 channel, endogenous in mouse neurons (from UniProt P97438 1-426)
- binding [4]: binds

Molecule: NTSR3/Sortilin, endogenous in mouse cortical neurons (from UniProt Q6PHU5-1 74-825) (receptor)
- binding [5]: binds

Molecule: YAPLPRWSGPIGVSWGLR (monoiodinated (125I) on Tyr0) [125I-labelled spadin (monoiodinated on Tyr0)]
- binding [6]: binds
- binding [7]: binds
